# PubChem BioAssay AID652272, Drosophila RNAi Screening Center – 2013
# Assay: 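Finding fly genes that regulate Hedgehog signal transduction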 (primary screen)
# System: Drosophila clone 8 (Cl8) cells
# Knock-down reagent: long dsRNA against Drosophila genes
# Read-out: 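Plate reader light from a firefly reporter under a ptc promoter fragment that responds to Hedgehog, with Renilla light as transfection reference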
# Scale: firefly Hh reporter signal: higher = more ptc reporter light; Renilla reference signal: higher = more Renilla control light
# Active means: 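Called a hit if the two-replicate mean z-score lies below -2 or above +3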
# Calls: active = hit: reporter lowered or raised; inactive = not a hit
# In all, the deposit lists about 21,000 reagents; this is an unselected part of those that have a named target and a result. Of all reagents, 503 (2.4%) got an active call. 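Raw plate light values, not normalised; calls rest on replicate z-scores that were not deposited; hits include reporter decreases as well as increases.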 Reagents against one gene are numbered here. A plus sign joins genes that one reagent is predicted to hit. Reagent sequences are not shown. The record does not give: the amount of reagent, the time to read-out.
Target gene,reagent no.,"firefly Hh reporter signal, replicate 1","firefly Hh reporter signal, replicate 2","firefly Hh reporter signal, replicate 3","Renilla reference signal, replicate 1","Renilla reference signal, replicate 2",Outcome
CG4390,1,86919,58521,,3792,2360,inactive
GATAd,1,80788,39515,,3721,1976,inactive
CG42360,1,85126,50821,,1619,4944,inactive
unc-4,1,1.34e5,5.47e5,3.40e5,5140,3611,inactive
spidey,1,78765,2.81e5,,2300,9733,inactive
CG31606,1,4.18e5,1.51e5,,21906,6347,inactive
CG14006,1,79801,63312,,1843,5383,inactive
CG14017,1,84828,40256,,1792,4530,inactive
CG13794,1,1.02e5,42512,,1785,3863,inactive
CG15472,1,73768,1.49e5,,2245,5691,inactive
CG4880,1,1.04e5,99168,,2603,2280,inactive
CG6908,1,55944,83120,,1751,2800,inactive
CG9386,1,95840,97094,,3269,2699,inactive
Ag5r2 (Antigen 5-related 2),1,84874,1.54e5,,2604,6707,inactive
CG31038,1,1.03e5,85165,,2509,2307,inactive
CG31038,2,1.21e5,1.31e5,,4133,3981,inactive
CG31038,3,1.35e5,1.82e5,,5536,5633,inactive
TTLL15 (Tubulin tyrosine ligase-like 15),1,50608,1.01e5,,1369,2928,inactive
CG5245,1,68161,1.16e5,,2224,5901,inactive
CG11112,1,84913,53085,,2064,4213,inactive
Met75Ca + Met75Cb,1,3.40e5,,,6832,,inactive
Met75Ca + Met75Cb,2,1.90e5,,,5068,4843,inactive
"beta4GalNAcTA (beta1,4-N-acetylgalactosaminyltransferase A)",1,7.66e5,1.39e5,,6043,6043,inactive
CG34054,1,1.64e5,3.43e5,,4272,13835,inactive
CG6769,1,93440,86920,,2240,2231,inactive
mei-41 (meiotic 41),1,37845,1.74e5,,1133,7067,inactive
CG13643,1,5.50e5,1.18e5,,26008,3206,inactive
CG13643,2,5.56e5,1.51e5,,28039,4661,inactive
BaraA1 + BaraA2,1,1.76e5,2.25e5,,4377,9300,inactive
l(3)72Dn (lethal (3) 72Dn),1,69828,59802,,2826,2916,inactive
Cdc16 (Cell division cycle 16),1,4.93e5,89914,,23612,2800,inactive
Hrb87F (Heterogeneous nuclear ribonucleoprotein at 87F),1,95569,89472,,3911,3286,inactive
Pex16 (Peroxin 16),1,84320,35985,,3623,1811,inactive
spz3 (spatzle 3),1,81346,42305,,2357,3895,inactive
spz3 (spatzle 3),2,1.17e5,62101,,3168,5104,inactive
Dcr-2 (Dicer-2),1,1.29e5,71719,,3469,4901,inactive
CG13707,1,44768,66816,,5216,4913,inactive
Idi (Isopentenyl-diphosphate delta isomerase),1,74514,1.09e5,,3648,4547,inactive
CG3942,1,65170,1.41e5,,1404,3746,inactive
CG43101,1,1.47e5,2.31e5,,4131,9558,inactive
PH4alphaSG1 (prolyl-4-hydroxylase-alpha SG1),1,86646,92218,,2903,2354,inactive
CCT4 (Chaperonin containing TCP1 subunit 4),1,94820,48979,,2989,5672,inactive
Cat (Catalase),1,90377,,,3093,1917,inactive
CG14143,1,53532,43290,67356,4752,4540,inactive
Cap-D3 (Chromosome associated protein D3),1,78149,53528,,1970,5780,inactive
slow (slowdown),1,1.44e5,93712,,5204,3683,inactive
slow (slowdown),2,41365,45235,,4416,2681,inactive
CG13675,1,65096,86229,,2876,5784,active
CG13675,2,16923,18229,,3224,1018,inactive
rhea,1,61825,55395,,6696,3601,inactive
CG32461,1,2.19e5,,,4572,,inactive
CG32189,1,2.30e5,,,5472,,inactive
Grasp65,1,68112,60088,,2812,2184,inactive
aralar1,1,4.57e5,1.87e5,,23008,3318,inactive
aralar1,2,86617,66497,,1907,1970,inactive
CG31086 + CG31323,1,6.17e5,98420,,41296,1824,inactive
iPLA2-VIA (calcium-independent phospholipase A2 VIA),1,1.34e5,47350,,5155,1409,inactive
CG10918,1,95481,2.54e5,,1557,10691,inactive
Tes (Testin),1,92628,77136,,2489,5264,inactive
CG14830,1,1.59e5,2.32e5,,4855,10742,inactive
CG17167,1,1.34e5,2.50e5,,5127,11496,inactive
CG17167,2,1.50e5,2.81e5,,5089,13686,inactive
Trf4-1 (Topoisomerase related function 4-1),1,1.22e5,3.64e5,,4224,11149,inactive
CG7218,1,1.13e5,47542,,5085,2252,inactive
Cdc45 (Cell division cycle 45),1,90592,1.10e5,,1813,4172,inactive
Cdc45 (Cell division cycle 45),2,1.32e5,66576,,8775,2851,inactive
CG13857,1,9.49e5,2.04e5,,46969,4835,inactive
eIF6 (eukaryotic translation initiation factor 6),1,72394,54149,,3972,2634,inactive
AsnRS (Asparaginyl-tRNA synthetase),1,50621,71844,,2499,3238,inactive
meso18E,1,71025,1.64e5,,1546,7580,inactive
CG7465,1,78872,57208,,6154,4596,inactive
CheB93a (Chemosensory protein B 93a),1,5.27e5,1.69e5,,30004,3168,inactive
stck (steamer duck),1,74816,1.20e5,,2104,3464,inactive

Limited to “firefly Hh reporter signal, replicate 1” (12 entries from above):
Cdc16 (Cell division cycle 16) = 4.93e5
Hrb87F (Heterogeneous nuclear ribonucleoprotein at 87F) = 95569
Pex16 (Peroxin 16) = 84320
spz3 (spatzle 3) #1 = 81346
spz3 (spatzle 3) #2 = 1.17e5
Dcr-2 (Dicer-2) = 1.29e5
CG13707 = 44768
Idi (Isopentenyl-diphosphate delta isomerase) = 74514
CG3942 = 65170
CG43101 = 1.47e5
PH4alphaSG1 (prolyl-4-hydroxylase-alpha SG1) = 86646
CCT4 (Chaperonin containing TCP1 subunit 4) = 94820
